# Data reported in paper PMC7806638.
# The chains behind the UniProt entries cited, without tags or fusion partners. Where a name states a change or a piece, a line headed by the entry shows the natural chain unless it says otherwise.
# UniProt P06748: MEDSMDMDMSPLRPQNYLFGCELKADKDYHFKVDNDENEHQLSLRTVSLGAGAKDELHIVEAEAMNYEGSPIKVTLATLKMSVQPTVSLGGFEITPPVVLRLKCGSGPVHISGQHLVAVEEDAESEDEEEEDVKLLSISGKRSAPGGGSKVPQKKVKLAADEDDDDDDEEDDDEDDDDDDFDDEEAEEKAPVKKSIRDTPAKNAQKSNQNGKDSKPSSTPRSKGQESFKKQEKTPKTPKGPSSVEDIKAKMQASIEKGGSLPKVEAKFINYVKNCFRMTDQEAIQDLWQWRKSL
# Experiments:
# [1] = biological target: eGFP-labeled nucleophosmin with AML-associated mutation type A (human) (UniProt P06748); assay: co-IP; GFP-Trap nanobeads on lysates of transfected 293T cells, 1 h at 4 °C, washed with 10 mM Tris pH 7.5, 150 mM NaCl, 0.5 mM EDTA, SDS-PAGE and blot; some samples from cells treated with 10 µM NSC348884 for 24 h
# [2] = biological target: eGFP-labeled nucleophosmin with AML-associated mutation type A (human) (UniProt P06748); assay: FRET or BRET; FLIM-FRET in living co-transfected cells, eGFP donor and mRFP1 acceptor, eGFP lifetime before and after mRFP1 photobleaching, 37 °C; some cells treated with 10 µM NSC348884 for 2 h
# [3] = biological target: mRFP1-labeled nucleophosmin with AML-associated mutation type A (human) (UniProt P06748); assay: co-IP; RFP-Trap nanobeads on lysates of co-transfected 293T cells, 1 h at 4 °C, washed with 10 mM Tris pH 7.5, 150 mM NaCl, 0.5 mM EDTA, SDS-PAGE and blot; some samples from cells treated with 10 µM NSC348884 for 24 h
# [4] = biological target: eGFP-labeled nucleophosmin with AML-associated mutation type A (human) (UniProt P06748); assay: relocalisation on co-expression (confocal live-cell imaging); 293T cells (with NSC348884 also HeLa) co-transfected with G_NPMmut and mRFP1-labeled NPM variants; red signal in the cytoplasm and green signal in nucleoli scored
Substance,binding [1],binding [2],binding [3],binding [4]
mRFP1-labeled nucleophosmin with AML-associated mutation type A (from UniProt P06748),binds,binds,,
eGFP-labeled nucleophosmin with AML-associated mutation type A (from UniProt P06748),,,binds,
endogenous nucleophosmin (from UniProt P06748 1-294),binds,,binds,
mRFP1-labeled wild-type nucleophosmin (from UniProt P06748 1-294),,,,binds

# No constants are given. Whether binding was seen depends on the method and setting. Binding can be weak; no strength is given. For part of these data: In cells and extracts the contact can be indirect.
